Structures are written as SMILES.

For the experiment, the target named is T1, OCTN2 (novel organic cation transporter 2) (Homo sapiens, UniProt O76082).
T1 construct: gene SLC22A5
T1 sequence (O76082 1-557): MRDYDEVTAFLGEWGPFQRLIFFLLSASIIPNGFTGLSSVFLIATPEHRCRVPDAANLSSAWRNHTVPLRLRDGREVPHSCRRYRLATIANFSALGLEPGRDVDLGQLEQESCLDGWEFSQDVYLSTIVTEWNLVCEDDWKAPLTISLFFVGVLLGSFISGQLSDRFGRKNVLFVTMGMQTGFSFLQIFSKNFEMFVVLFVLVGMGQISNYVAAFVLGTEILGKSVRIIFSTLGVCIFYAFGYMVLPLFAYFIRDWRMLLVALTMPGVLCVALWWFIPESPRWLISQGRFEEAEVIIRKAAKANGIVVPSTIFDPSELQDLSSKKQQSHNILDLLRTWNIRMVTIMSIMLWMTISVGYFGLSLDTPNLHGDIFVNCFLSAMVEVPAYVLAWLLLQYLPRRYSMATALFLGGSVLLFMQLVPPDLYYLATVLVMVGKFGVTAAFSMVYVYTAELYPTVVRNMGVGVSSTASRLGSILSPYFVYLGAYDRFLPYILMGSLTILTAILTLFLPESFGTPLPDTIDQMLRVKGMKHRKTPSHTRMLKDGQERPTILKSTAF
As to the kind of experiment: cell-based.

Regarding `CC(C)[N+]1(C)C2CCC1CC(OC(=O)C(CO)c1ccccc1)C2` (stereo not shown) [ipratropium], the concentration for half-maximal inhibition (IC50) came to 615 ± 175 µM.

The values above are taken from publication PMC12780140, “Structural basis of sodium ion-dependent carnitine transport by OCTN2” (Nature Communications, 2025).
